Changes are numbered by the printed parent chain. Results are given in words; binding and its absence hold for the method and conditions named. Some results given as binding are weak or reduced against the parent protein; the word gives no strength.
B1: 6266.1 Fab (Fab, V domains shown)
VH: QVQLVQSGAEVKKPGSSVKVSCKASGGTLSHYGVSWVRQAPGQGLEWMGNIIPGIGTANYAQKFQGRVTITADESTSTAYMELSSLRSEDTAVYYCARSGGTKYGMLDVWGQGTMVTVSS
VL: EIVMTQSPATLSVSPGERATLSCRASQSVSSNLAWYQQKPGQAPRLLIYGASTRATGIPARFSGSGSGTEFTLTISSLQSEDFAVYYCQQLILWPPRTFGGGTKVEIK
B2: 6266.12 Fab (Fab, V domains shown)
VH: B1 VH with S30N, H31G, I55F
VL: B1 VL
B3: 6266.15 Fab (Fab, V domains shown)
VH: B1 VH with H31G, I55F, M106E
VL: B1 VL
B4: 6266.13 Fab (Fab, V domains shown)
VH: B1 VH with H31G, V34M, I55F
VL: B1 VL
B5: 6266.11 Fab (Fab, V domains shown)
VH: B1 VH with H31G, I55F
VL: B1 VL with T56Y
B6: 6266.7 Fab (Fab, V domains shown)
VH: B1 VH with M106E
VL: B1 VL with T56Y, F83A
B7: 6266.9 Fab (Fab, V domains shown)
VH: B1 VH with S30K, H31G, I55F, S99G
VL: B1 VL with T53K
B8: 6266.3 Fab (Fab, V domains shown)
VH: B1 VH
VL: B1 VL with T56Y
B9: 6266.8 Fab (Fab, V domains shown)
VH: B1 VH with S30K, H31G, I55F, S99G
VL: B1 VL with T56Y
B10: 6266.10 Fab (Fab, V domains shown)
VH: B1 VH with H31G, I55F
VL: B1 VL with T53K
B11: 6266.4 Fab (Fab, V domains shown)
VH: B1 VH
VL: B1 VL with T53K
B12: 6266.5 Fab (Fab, V domains shown)
VH: B1 VH with K103Q
VL: B1 VL with T53K, F83A
B13: 6266.14 Fab (Fab, V domains shown)
VH: B1 VH with H31G, I55F, T57V, Y104W
VL: B1 VL
B14: 6266.6 Fab (Fab, V domains shown)
VH: B1 VH with K103Q
VL: B1 VL with T56Y, F83A
B15: 6266.2 Fab (Fab, V domains shown)
VH: B1 VH
VL: B1 VL with T53K, F83A
B16: 16G5 (antibody, V domains shown)
VH: QVQLQQPGAELVRPGAAVKLSCKASGYTFTSYWMHWVKQRPGQGLEWIGEINPTNGRTNYNENFKSKATLTVDKSSSTAYMQLSSLTSEDSAVYYCARGTRAYHFWGQGTSVTVSS
VL: DIQLTQTPASLSVSVGETVTITCRASENIYSNLAWYQQKQGKSPQLLVYAATDLADGVPSRFRGSGSGTQYSLKINSLQSEDFGSYYCQHFWGTPLTFGAGTKLELI
B17: 10D11 (antibody, V domains shown)
VH: QVQLQQSGPELVRPGVAVKISCKGSGYKFIDYGMHWVKQSHTKSLQWIGVISPYSGKTNYSQKFKGKATMTVDKSSSTAYMELARLTSEDSAIYYCARGLSGNFVMDFWGQGTSVTVSS
VL: DIVLTQSPASLAVSLGQRATISCRASESVDSYGPSFMHWYQQKPGQPPKLLIYRASNLESGIPARFSGSGSRTDFTLTINPVEADDVATYYCQHSNEDPPTFGGGTRLEIK
B18: 7A4 (antibody, V domains shown)
VH: QVQLQQSGPELVRPGVSVKISCKGSGYTFTDYAMHWVKQSHAKSLEWIGGISTYFGRTNYNQKFKGRATMTVDKSSSTAYMELARLTSEDSALYYCARGLSGNYVMDYWGQGTSVTVSS
VL: B17 VL with S31D, P34N, H94Q, D98A, R107K, K111R
B19: 15D2 (antibody, V domains shown)
VH: B18 VH with F29V, G50V, T53F, F55S, R57K, K65M, R67K, L93I
VL: B17 VL with P34N, H94Q, D98G, R107K
B20: 8A2 (antibody, V domains shown)
VH: B18 VH with A33G, G50V, T53P, F55S, K63N, R67K, M81L, L93I, M106V
VL: B17 VL with P34N, H94Q, D98G, R107K
B21: 7B10 (antibody, V domains shown)
VH: B18 VH
VL: B17 VL with S31D, P34N, H94Q, D98A, R107K, K111R
B22: 1B12 (antibody, V domains shown)
VH: EVKLVESGGGLVQPGGFLKLSCATSGFTFSDYYMYWVRQTPEKRLEWVASISNGGDNTYYPDTVKGRFTISRDNAKNTLYLQMSRLKSEDTAMYYCARQGALYDGYYRGAMDYWGQGTSVTVSS
VL: QIVLTQSPAIMSASLGGRVTMTCTTSSSVPSSYFHWYQQKPGSSPKLWIYSTSNLASGVPARFSGSGSGTSYSLTISSMEAEDAATYYCHQYHRSPFTFGSGTKLEIK
B23: 7G7 (antibody, V domains shown)
VH: QVQLQQPGSELVRPGASVKLSCKASGYTFTSYWMHWVKQRHGQGLEWIGNIYPGSGSTKYDERFKSKGTLTVDTSSSTAYMHLSSLTSEDSAVYYCTRGGYDSRAWFAYWGQGTLVTVSA
VL: DIVLTQSPASLAVSLGQRATISCRARQSVSTSSYSFMHWYRQKAGQPPKLLIKYASIQESGVPARFSGSGSGTDFTLNILPVEEEDTATYYCQHTWEIPFTFGSGTKLEIK
B24: 4C2 (antibody, V domains shown)
VH: B23 VH with R63K, Y109H
VL: B23 VL with R41Q, A44P, K107N
B25: 16F6 (antibody, V domains shown)
VH: DVQLQESGPGLVKPSQSLSLTCTVTGNSITSEYAWNWIRQFPGNKLEWMGYISYSGTTSYNPSLKSRISITRDTSKNQLFLQLNSVTTEDTATYFCARYGYGNPATRYFDVWGAGTTVTVSS
VL: DVQITQSPSYLTASPGETITINCRASKSISKYLAWYQEKPGKTNKLLIYSGSTLQSGIPSRFSGSGSGTDFTLTISNLEPEDFAMYYCQQHNEYPWTFGGGTKLEIK
B26: 13D4 (antibody, V domains shown)
VH: QVQLQQSGAELMKPGASVKISCKAAGYTFSNYWIEWVKQRPGHGLEWIGEILPGSGSTKYNEKFKGKATFTADTSSNTAYMQLSSLTSEDSAVYYCARRGGYGYDGEFAYWGQGTLVTVSA
VL: DIQMTQTTSSLSASLGDRVTINCRAGQDITNYLNWFQQKPDGTVKLLIYYTSRLHSGVPSRFSGSGSGTDYSLTITNLEQEDIATYFCQQANTLPYTFGGGTKLEIK
B27: 7A4 HC/8A2 LC (antibody, V domains shown)
VH: B18 VH
VL: B17 VL with P34N, H94Q, D98G, R107K

By UniProt entry, the sequences of proteins in these tests, tags left out. Where a name states a change or a piece, a line headed by the entry shows the natural chain unless it says otherwise.
UniProt P56817: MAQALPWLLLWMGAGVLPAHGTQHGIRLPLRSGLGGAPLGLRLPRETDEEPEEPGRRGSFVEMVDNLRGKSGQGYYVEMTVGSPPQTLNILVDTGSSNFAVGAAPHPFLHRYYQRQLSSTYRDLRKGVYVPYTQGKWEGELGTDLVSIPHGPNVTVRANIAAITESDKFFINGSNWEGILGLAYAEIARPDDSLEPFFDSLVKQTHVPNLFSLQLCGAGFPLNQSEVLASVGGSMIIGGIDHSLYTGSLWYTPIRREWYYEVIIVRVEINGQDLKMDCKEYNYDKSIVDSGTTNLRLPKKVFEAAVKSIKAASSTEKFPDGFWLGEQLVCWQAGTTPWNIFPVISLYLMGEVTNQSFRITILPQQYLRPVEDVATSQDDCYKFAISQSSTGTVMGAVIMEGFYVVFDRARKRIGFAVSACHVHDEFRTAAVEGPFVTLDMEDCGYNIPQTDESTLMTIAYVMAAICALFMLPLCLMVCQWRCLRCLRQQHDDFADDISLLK

molecular target: His-tagged BACE1 protein (Example 15) (Homo sapiens (Human)) (UniProt P56817); experiment: SPR, His-BACE1 captured by anti-His, Fab injected

| binding | Binder |
| --- | --- |
| binds | B1 |
| binds | B2 |
| binds | B3 |
| binds | B4 |
| binds | B5 |
| binds | B6 |
| binds | B7 |
| binds | B8 |
| binds | B9 |
| binds | B10 |
| binds | B11 |
| binds | B12 |
| binds | B13 |
| binds | B14 |
| binds | B15 |

molecular target: cyno TfR, full length, transiently expressed in 293 cells (cynomolgus monkey); experiment: FACS on transfected 293 cells, 1 uM holo-Tf present

| binding | Binder |
| --- | --- |
| binds | B16 |
| binds | B17 |
| binds | B18 |
| binds | B19 |
| binds | B20 |
| binds | B21 |
| binds | B22 |
| binds | B23 |
| binds | B24 |
| binds | B25 |
| binds | B26 |

molecular target: human TfR, full length, on cells (human) (UniProt P02786); experiment: as above

| binding | Binder |
| --- | --- |
| binds | B17 |
| binds | B18 |
| binds | B21 |

molecular target: cyno TfR extracellular domain (analogous construct to human TfR ecd) (cynomolgus monkey); experiment: ELISA

| binding | Binder |
| --- | --- |
| binds | B16 |
| binds | B17 |
| binds | B18 |
| binds | B27 |
| binds | B19 |
| binds | B20 |
| binds | B21 |
| binds | B22 |
| binds | B23 |
| binds | B24 |
| binds | B25 |
| binds | B26 |

molecular target: human TfR extracellular domain with N-terminal His tag (human) (UniProt P02786); experiment: ELISA

| binding | Binder |
| --- | --- |
| binds | B17 |
| binds | B18 |
| binds | B21 |

molecular target: cyno TfR, full length, transiently expressed in 293 cells (cynomolgus monkey); experiment: FACS, 293 cells, 1 uM holo-Tf

| binding | Binder |
| --- | --- |
| binds | B16 |
| binds | B17 |
| binds | B18 |
| binds | B19 |
| binds | B20 |
| binds | B21 |
| binds | B22 |
| binds | B23 |
| binds | B24 |
| binds | B25 |
| binds | B26 |

molecular target: human TfR, full length, on cells (human) (UniProt P02786); experiment: FACS, 293 cells, 1 uM holo-Tf

| binding | Binder |
| --- | --- |
| binds | B17 |
| binds | B18 |
| binds | B21 |

Source: patent US20180057604A1
